Data: the supplement of paper PMC12819154, “High-throughput peptide-centric local stability assay extends protein–ligand identification to membrane proteins, tissues and bacteria” (Nature Structural & Molecular Biology, 2025)
Some of the results follow. Most values lie at the level of the controls, where differences are scatter.

Amino acid sequences for entries named in this document (tags omitted). A change or cut given only in a name is not applied to a line headed by its entry.
UniProt Q5T035: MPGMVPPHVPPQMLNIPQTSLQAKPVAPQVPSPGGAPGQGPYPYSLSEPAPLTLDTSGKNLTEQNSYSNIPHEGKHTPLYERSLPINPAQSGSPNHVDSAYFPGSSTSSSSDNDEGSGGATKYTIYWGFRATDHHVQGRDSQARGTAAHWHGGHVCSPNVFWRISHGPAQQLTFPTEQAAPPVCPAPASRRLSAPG
UniProt Q5M775: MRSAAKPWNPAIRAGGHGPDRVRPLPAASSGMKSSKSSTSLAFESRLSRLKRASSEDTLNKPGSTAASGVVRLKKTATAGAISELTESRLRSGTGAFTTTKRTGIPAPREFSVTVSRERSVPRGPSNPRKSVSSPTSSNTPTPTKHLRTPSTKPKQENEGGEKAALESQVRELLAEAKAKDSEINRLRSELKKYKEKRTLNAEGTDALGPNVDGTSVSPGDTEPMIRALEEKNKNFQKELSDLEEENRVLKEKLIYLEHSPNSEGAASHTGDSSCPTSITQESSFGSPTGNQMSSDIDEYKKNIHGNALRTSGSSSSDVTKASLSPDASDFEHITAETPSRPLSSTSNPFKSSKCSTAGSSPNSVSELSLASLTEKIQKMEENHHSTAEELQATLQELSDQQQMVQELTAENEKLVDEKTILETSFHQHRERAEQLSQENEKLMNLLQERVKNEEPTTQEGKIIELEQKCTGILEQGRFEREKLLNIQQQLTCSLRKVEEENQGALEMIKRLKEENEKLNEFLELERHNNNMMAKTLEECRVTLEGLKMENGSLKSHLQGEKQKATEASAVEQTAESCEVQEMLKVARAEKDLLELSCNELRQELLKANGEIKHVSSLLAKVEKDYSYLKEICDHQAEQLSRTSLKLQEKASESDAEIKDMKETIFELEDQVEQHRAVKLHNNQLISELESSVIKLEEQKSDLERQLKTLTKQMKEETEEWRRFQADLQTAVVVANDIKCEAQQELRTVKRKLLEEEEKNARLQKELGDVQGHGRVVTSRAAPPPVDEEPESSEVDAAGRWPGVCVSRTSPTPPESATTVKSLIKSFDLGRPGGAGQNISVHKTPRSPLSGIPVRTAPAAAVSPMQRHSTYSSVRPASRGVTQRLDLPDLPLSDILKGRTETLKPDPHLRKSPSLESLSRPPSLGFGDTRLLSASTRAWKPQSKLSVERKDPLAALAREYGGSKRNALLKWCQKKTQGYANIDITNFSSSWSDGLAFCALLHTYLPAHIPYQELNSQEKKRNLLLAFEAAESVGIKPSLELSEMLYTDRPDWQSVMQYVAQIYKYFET
UniProt Q5HY98: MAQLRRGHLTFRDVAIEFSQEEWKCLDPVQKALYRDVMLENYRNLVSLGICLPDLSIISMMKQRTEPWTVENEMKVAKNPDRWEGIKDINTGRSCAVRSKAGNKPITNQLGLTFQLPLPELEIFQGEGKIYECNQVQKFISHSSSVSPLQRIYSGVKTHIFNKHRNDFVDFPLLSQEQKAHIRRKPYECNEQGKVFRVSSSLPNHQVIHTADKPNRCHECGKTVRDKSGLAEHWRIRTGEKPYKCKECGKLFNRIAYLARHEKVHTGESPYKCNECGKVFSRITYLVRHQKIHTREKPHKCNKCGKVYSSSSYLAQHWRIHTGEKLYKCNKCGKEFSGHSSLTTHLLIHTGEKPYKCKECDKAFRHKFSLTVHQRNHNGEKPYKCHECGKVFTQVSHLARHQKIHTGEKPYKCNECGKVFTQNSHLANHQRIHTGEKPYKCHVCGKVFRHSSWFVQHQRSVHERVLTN
UniProt Q4VC31: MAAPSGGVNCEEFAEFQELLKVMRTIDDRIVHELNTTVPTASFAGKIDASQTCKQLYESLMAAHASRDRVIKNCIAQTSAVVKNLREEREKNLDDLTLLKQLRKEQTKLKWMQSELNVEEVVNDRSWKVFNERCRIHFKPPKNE
UniProt Q53H54: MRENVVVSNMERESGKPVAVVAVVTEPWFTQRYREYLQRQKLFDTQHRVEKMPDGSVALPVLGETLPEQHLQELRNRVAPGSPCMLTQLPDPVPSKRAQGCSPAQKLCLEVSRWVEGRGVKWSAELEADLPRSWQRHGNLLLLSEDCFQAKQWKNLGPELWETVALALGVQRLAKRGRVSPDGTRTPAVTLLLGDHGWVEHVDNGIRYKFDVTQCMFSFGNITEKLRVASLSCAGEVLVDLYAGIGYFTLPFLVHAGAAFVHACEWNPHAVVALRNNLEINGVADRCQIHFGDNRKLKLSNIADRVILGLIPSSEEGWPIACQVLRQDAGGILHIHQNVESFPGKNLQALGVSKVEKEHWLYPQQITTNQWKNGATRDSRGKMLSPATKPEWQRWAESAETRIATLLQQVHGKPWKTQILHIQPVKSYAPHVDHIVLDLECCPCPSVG
UniProt Q5T9S5: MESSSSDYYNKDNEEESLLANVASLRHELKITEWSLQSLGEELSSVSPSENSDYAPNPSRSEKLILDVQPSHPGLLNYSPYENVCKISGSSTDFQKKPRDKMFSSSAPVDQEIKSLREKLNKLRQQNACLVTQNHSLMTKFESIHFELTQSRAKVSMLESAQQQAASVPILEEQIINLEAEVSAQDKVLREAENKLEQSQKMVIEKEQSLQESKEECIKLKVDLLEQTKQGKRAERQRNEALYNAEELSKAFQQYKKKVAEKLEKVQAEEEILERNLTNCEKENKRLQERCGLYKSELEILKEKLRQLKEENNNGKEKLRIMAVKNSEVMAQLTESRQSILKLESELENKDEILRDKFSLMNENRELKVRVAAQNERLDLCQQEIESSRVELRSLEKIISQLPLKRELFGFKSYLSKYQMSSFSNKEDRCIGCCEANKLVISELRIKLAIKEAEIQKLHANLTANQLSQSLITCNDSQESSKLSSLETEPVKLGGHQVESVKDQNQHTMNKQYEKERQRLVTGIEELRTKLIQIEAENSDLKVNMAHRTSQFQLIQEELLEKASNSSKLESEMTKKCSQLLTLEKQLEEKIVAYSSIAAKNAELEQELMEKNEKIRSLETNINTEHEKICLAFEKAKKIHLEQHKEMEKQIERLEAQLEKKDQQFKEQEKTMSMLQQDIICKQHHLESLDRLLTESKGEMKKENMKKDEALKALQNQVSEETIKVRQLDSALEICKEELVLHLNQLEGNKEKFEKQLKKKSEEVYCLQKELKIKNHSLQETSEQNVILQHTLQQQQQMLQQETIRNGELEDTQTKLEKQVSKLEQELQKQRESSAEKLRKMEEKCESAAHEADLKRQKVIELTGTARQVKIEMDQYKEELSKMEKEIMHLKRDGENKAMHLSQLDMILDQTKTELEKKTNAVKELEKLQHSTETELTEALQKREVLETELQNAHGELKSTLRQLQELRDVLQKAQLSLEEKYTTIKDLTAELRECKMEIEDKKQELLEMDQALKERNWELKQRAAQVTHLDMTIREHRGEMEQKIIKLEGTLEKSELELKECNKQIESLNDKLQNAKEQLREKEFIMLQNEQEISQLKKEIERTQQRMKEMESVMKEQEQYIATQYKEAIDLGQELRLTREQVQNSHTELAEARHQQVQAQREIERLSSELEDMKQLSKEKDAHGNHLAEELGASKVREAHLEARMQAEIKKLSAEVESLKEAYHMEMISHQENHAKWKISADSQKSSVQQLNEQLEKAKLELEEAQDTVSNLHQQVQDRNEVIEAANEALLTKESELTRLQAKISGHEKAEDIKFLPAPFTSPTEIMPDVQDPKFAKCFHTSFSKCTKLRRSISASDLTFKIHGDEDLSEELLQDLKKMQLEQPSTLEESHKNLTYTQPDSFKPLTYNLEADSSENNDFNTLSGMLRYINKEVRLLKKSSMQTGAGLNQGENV
UniProt Q5T1V6: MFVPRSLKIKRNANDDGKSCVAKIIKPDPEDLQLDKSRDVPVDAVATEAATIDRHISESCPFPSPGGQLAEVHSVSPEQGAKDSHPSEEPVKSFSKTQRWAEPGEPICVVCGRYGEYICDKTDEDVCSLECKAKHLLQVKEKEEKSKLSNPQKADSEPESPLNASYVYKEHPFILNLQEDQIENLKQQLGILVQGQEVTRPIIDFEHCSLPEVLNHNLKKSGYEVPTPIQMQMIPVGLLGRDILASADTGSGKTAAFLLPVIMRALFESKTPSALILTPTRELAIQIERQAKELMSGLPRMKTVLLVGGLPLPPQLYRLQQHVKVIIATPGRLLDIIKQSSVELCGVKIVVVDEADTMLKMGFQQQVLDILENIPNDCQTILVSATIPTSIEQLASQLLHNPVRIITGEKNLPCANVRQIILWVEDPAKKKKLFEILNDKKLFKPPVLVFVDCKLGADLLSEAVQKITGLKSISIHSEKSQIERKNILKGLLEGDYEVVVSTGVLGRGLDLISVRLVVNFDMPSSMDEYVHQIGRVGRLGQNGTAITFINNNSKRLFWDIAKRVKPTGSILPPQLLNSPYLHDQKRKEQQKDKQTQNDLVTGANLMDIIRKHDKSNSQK
UniProt Q5SW96: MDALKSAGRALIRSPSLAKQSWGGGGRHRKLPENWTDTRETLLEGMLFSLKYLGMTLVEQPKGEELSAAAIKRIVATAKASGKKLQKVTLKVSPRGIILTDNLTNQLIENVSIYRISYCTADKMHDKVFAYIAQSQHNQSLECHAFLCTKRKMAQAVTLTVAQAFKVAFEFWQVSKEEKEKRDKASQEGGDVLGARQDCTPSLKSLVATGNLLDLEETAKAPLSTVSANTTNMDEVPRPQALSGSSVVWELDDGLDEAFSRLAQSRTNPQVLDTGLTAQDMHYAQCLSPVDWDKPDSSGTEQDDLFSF
UniProt Q53EL6: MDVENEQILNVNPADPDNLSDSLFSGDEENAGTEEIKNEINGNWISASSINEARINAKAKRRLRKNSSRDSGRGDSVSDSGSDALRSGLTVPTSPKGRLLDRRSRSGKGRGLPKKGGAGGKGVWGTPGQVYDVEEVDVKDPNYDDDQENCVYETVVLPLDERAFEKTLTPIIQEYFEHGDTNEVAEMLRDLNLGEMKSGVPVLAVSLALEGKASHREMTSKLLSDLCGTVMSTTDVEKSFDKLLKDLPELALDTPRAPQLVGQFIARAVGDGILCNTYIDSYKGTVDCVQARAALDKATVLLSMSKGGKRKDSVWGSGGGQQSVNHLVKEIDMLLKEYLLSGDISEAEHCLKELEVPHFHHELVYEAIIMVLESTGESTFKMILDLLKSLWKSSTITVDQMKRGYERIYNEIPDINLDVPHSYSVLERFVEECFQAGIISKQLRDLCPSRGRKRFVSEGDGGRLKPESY
UniProt Q5T6L9: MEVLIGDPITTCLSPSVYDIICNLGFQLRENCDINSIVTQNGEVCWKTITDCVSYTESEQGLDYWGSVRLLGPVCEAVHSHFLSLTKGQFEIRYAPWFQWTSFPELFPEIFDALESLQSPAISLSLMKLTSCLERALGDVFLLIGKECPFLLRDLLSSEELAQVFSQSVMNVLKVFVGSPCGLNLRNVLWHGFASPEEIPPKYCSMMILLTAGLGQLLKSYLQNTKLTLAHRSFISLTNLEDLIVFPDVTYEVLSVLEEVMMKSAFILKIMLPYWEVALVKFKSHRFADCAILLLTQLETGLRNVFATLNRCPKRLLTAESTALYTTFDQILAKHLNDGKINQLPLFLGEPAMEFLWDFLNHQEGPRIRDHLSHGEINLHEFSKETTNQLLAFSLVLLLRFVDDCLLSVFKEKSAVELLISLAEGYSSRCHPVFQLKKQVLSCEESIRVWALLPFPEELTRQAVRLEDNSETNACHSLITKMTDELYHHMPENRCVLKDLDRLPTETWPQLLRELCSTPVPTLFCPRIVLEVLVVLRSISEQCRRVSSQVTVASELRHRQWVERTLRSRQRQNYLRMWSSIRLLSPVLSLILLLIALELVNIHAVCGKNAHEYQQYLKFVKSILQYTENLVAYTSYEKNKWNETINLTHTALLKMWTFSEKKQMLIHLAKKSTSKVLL

The targets below were run with CN[C@@H]1C[C@H]2O[C@@](C)([C@@H]1OC)n1c3ccccc3c3c4c(c5c6ccccc6n2c5c31)C(=O)NC4 [staurosporine] (assay: log2 fold change of tryptic peptide abundance, ligand vs vehicle (limited proteolysis) (log2 ratio); higher = more trypsin-susceptible (destabilized)). Conditions: ligand concentration: 20 uM; sample: K562 cleared lysate; digestion: 4 min, 22 C (HT-PELSA RT4min, Orbitrap Astral).

| Target | log2 fold change |
| --- | --- |
| UniProt Q5T035 (peptide sequence: NLTEQNSYSNIPHEGK, peptide start residue: 411) | -0.0427 |
| SPECC1 (peptide sequence: ASESDAEIKDMK, peptide start residue: 651) (UniProt Q5M775) | 0.392 |
| UniProt Q5HY98 (peptide sequence: HRNDFVDFPLLSQEQK, peptide start residue: 164) | -0.217 |
| CCDC58 (peptide sequence: IDASQTCKQLYESLMAAHASR, peptide start residue: 47) (UniProt Q4VC31) | 0.381 |
| TRMT12 (peptide sequence: QKLFDTQHR, peptide start residue: 40) (UniProt Q53H54) | 0.419 |
| CCDC18 (peptide sequence: EVLETELQNAHGELK, peptide start residue: 944) (UniProt Q5T9S5) | 0.428 |
| DDX59 (peptide sequence: QTQNDLVTGANLMDIIR, peptide start residue: 594) (UniProt Q5T1V6) | -0.512 |
| LDLRAP1 (peptide sequence: KMAQAVTLTVAQAFK, peptide start residue: 152) (UniProt Q5SW96) | 0.482 |
| PDCD4 (peptide sequence: ATVLLSMSK, peptide start residue: 298) (UniProt Q53EL6) | -0.0916 |
| ERMARD (peptide sequence: MTDELYHHMPENR, peptide start residue: 482) (UniProt Q5T6L9) | -0.165 |

In another format: results already given.
Target | log2 fold change
SPECC1 (peptide sequence: ASESDAEIKDMK, peptide start residue: 651) (UniProt Q5M775) | 0.392
UniProt Q5HY98 (peptide sequence: HRNDFVDFPLLSQEQK, peptide start residue: 164) | -0.217
